From article doi:10.1101/2020.12.31.424863
Substitutions are numbered along the chain they refer to. Names may count otherwise. Results are given in words; binding and its absence hold for the method and conditions named. For part of these data: Binding seen in cells or lysates may run through a third protein. Some results given as binding are weak or reduced against the parent protein; the word gives no strength. For part of these data: Sequences can lack the tags named with a protein.

What was measured:
[1] = molecular target: T1, GST-tagged Nse6, wild type (budding yeast) (UniProt P40026); assay: pull-down
T1 sequence: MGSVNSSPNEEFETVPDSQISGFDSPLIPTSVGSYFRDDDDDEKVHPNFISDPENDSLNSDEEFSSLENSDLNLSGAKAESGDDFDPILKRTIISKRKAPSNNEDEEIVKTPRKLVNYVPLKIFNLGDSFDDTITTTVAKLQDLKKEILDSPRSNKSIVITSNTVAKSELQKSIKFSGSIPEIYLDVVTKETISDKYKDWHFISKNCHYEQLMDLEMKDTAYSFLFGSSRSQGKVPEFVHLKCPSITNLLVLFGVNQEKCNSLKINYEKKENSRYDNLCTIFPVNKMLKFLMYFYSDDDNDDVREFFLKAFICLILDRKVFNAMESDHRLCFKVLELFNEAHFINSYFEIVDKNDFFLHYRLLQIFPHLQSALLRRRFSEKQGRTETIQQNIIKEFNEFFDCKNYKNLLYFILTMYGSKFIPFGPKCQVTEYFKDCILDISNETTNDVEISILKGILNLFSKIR

[2] = molecular target: T2, GST-tagged Nse6-Y209A, I281W (region III mutant) (budding yeast) (UniProt P40026); assay: pull-down
T2 sequence: T1 sequence with Y209A, I281W

[3] = molecular target: T3, GST-tagged Nse6-S326W (region II mutant) (budding yeast) (UniProt P40026); assay: pull-down
T3 sequence: T1 sequence with S326W

[4] = molecular target: SUMO, yeast two-hybrid fusion [SUMO: Q12306]; assay: two-hybrid
[5] = molecular target: T4, Nse6, yeast two-hybrid fusion (budding yeast) (UniProt P40026); assay: two-hybrid
T4 sequence: T1 sequence

[6] = molecular target: T5, Nse1 (subunit of the budding yeast Smc5/6 holo-complex) (budding yeast), Q07913; assay: cross-linking; settings: remark: other sources report otherwise
T5 chain: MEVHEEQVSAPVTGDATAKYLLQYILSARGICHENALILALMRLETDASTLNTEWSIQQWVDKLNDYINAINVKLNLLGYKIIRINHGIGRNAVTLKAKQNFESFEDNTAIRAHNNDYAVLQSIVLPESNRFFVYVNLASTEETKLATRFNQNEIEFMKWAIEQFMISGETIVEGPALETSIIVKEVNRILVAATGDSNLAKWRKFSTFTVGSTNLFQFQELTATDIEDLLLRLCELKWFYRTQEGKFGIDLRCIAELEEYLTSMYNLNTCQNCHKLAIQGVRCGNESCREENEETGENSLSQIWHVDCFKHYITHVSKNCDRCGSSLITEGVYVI

[7] = molecular target: T6, Nse4 (subunit of the budding yeast Smc5/6 holo-complex) (budding yeast), P43124; assay: cross-linking; settings: remark: other sources report otherwise
T6 chain: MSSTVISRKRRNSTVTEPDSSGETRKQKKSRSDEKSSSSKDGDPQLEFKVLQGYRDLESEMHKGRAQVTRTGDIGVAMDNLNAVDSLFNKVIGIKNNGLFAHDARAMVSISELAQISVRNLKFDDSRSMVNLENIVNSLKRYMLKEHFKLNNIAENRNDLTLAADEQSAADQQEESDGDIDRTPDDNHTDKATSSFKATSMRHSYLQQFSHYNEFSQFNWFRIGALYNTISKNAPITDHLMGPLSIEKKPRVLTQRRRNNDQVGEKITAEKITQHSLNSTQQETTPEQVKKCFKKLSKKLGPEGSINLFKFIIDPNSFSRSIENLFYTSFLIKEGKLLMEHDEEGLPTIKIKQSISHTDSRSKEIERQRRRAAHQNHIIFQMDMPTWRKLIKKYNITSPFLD

[8] = molecular target: T7, Nse3 (subunit of the budding yeast Smc5/6 holo-complex) (budding yeast), Q05541; assay: cross-linking; settings: remark: other sources report otherwise
T7 chain: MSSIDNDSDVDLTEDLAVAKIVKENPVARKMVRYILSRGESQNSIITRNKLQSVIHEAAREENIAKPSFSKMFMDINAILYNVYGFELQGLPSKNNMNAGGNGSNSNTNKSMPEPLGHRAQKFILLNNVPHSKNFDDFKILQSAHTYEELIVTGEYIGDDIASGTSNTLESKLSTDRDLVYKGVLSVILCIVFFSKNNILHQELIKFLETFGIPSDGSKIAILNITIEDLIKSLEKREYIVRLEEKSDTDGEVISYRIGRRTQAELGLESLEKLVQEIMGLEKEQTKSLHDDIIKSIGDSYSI

[9] = molecular target: T8, Nse1 (subunit of the budding yeast Smc5/6 holo-complex) (budding yeast) (UniProt Q07913); assay: cross-linking
T8 sequence: T5 chain

[10] = molecular target: T9, Nse4 (subunit of the budding yeast Smc5/6 holo-complex) (budding yeast) (UniProt P43124); assay: cross-linking
T9 sequence: T6 chain

[11] = molecular target: T10, Nse3 (subunit of the budding yeast Smc5/6 holo-complex) (budding yeast) (UniProt Q05541); assay: cross-linking
T10 sequence: T7 chain

B1: His6-tagged Nse5, wild type (protein, UniProt Q03718 1-556)
chain: MDGALINSVLYVSPRNGAHYFVELTEKHLLAFEMLNSMCLLENYDHVLLFLECQFGKSHNLAVIPFDIILVLFTLSTLSEYYKEPILRANDPYNTSRETLSRRALKLLQKYLAILKEFDSEQYNLYDLELLRCQFFLAIDTLTPKKQKWGFDRFRRTKSESGVTYRQNASVDPELDQAKTFKNPYRSYISCLEQRNTILGNRLLNLKLNEPGEFINMILWTLSNSLQESTPLFLSSHEIWMPLLEILIDLFSCRQDYFIQHEVAQNVSKSLFVQRLSESPLAVFFESLNTRNFANRFSEYVFLNCDYKLPSDNYATPVHPVYNGENTIVDTYIPTIKCSPLYKSQKSLALRRKLIGSCFKLLLRVPDGHRLITPRIVADDVIQGISRTLASFNDILQFKKFFMTENLSQESYFIPLLAEGTLSEILKDTQECVVILTLVENLSDGVSFCNEVIGLVKSKCFAFTEQCSQASYEEAVLNIEKCDVCLLVLLRYLLHLIGTEAILDAKEQLEMLHAIEKNDSGRRQWAKALNLGNDPPLLYPIVSQMFGVHDKSVIIE
Which results are given for B1?
binding [1]: binds; binding [2]: binds; binding [3]: binds

B2: His6-tagged Nse5-Q109A (region II mutant) (protein, UniProt Q03718 1-556)
chain: B1 chain with Q109A
Which binding [1] does the source give for B2 here?
Its binding is “binds”.

And the binding [3]?
The binding was “binds”.

B3: His6-tagged Nse5-K337, S339W (region III mutant) (protein, UniProt Q03718 1-556)
chain: B1 chain with K337W, S339W
Which binding [1] does the source give for B3 here?
The binding was “binds”.

What about the binding [2] of the same binder?
The binding was “binds”.

B4: Nse5, wild type, yeast two-hybrid fusion (protein, UniProt Q03718 1-556)
chain: B1 chain
How did the binding [4] turn out when B4 was run?
Its binding is “binds”.

What about the binding [5] of the same binder?
Its binding is “binds”.

B5: Nse2 SUMO ligase (subunit of the budding yeast Smc5/6 holo-complex), P38632 1-267 (protein)
chain: MALNDNPIPKSVPLHPKSGKYFHNLHARDLSNIYQQCYKQIDETINQLVDSTSPSTIGIEEQVADITSTYKLLSTYESESNSFDEHIKDLKKNFKQSSDACPQIDLSTWDKYRTGELTAPKLSELYLNMPTPEPATMVNNTDTLKILKVLPYIWNDPTCVIPDLQNPADEDDLQIEGGKIELTCPITCKPYEAPLISRKCNHVFDRDGIQNYLQGYTTRDCPQAACSQVVSMRDFVRDPIMELRCKIAKMKESQEQDKRSSQAIDVL
Which binding [6] does the source give for B5 here?
Its binding is “no binding”.

What about the binding [7] of the same binder?
Its binding is “no binding”.

What about the binding [8] of the same binder?
The binding was “no binding”.

B6: Nse6 (subunit of the budding yeast Smc5/6 holo-complex) (protein, UniProt P40026 1-464)
chain: T1 sequence
For B6, which binding [9] is on record?
The binding was “no binding”.

And the binding [10]?
The binding was “no binding”.

What about the binding [11] of the same binder?
Its binding is “no binding”.
